Assay results as given in US9493435B2, “IRE-1α inhibitors” (MannKing Corporation, priority 2009, dated 2016).
Like-named read-outs stand apart in the source and are kept apart here. The match of structure and compound is tentative.

By UniProt entry, the sequences of proteins in these tests, tags left out. Residues count along the entry.
UniProt O75460, 19-977 limits assumed: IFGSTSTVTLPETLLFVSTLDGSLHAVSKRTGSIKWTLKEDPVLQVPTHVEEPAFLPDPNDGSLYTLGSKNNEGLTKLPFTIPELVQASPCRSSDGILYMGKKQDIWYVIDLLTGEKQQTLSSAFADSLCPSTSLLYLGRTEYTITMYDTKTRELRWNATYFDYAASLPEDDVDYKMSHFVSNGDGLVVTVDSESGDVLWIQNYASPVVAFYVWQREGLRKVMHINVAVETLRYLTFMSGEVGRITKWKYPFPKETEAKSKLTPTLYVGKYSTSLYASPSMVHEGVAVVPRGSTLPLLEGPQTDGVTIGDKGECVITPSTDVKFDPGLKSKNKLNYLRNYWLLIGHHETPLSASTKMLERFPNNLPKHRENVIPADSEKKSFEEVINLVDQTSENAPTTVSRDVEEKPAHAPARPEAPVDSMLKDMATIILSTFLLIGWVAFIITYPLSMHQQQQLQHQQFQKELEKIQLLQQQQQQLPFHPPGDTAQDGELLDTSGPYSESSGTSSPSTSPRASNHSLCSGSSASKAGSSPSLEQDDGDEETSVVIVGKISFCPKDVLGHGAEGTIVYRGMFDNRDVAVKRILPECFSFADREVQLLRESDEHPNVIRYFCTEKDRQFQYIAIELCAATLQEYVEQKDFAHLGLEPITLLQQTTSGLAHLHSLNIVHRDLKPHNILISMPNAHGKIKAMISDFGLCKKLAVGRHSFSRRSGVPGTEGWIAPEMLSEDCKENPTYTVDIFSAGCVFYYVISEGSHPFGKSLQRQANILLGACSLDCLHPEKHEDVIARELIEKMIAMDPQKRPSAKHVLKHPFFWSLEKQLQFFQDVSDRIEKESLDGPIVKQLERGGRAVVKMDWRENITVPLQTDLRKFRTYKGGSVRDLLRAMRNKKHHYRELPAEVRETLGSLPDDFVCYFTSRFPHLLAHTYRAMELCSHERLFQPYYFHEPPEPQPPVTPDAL

Tests used:
[1] = target: human IRE-1α (GST-IRE-1α) (Homo sapiens (Human), UniProt O75460); assay: IRE-1α assay (cleavage of mini-XBP-1 mRNA stem-loop substrate); format: biochemical; conditions: read-out: IC50_av; average IC50 for inhibition of IRE-1α in vitro; tested form: HCl
[2] = system: IRE-1α-mediated XBP-1 splicing in human myeloma MM.1s cells; assay: Cellular XBP-1 splicing assay in myeloma cells (RT-PCR); conditions: read-out: EC50_av, average EC50, endogenous XBP-1 splicing in myeloma cells, DTT stress

Q: With `O=Cc1c(O)ccc2cc(N3CCCC(NCc4ccccn4)C3)ccc12` (stereo not shown) [Compound 108] as the compound, how does the IC50 [1] read?
A: < 1 µM

Q: What about the EC50 ([2]; tested form: HCl) of the same compound?
A: > 10 µM

Q: For `O=Cc1c(O)ccc2ccc(N3CCC(N4CCCCC4)C3)cc12` (stereo not shown) [Compound 137], which EC50 [2] is on record?
A: > 10 µM

Q: For `CN(Cc1ccccc1)C1CCN(c2ccc3c(C=O)c(O)ccc3c2)C1` (stereo not shown) [Compound 146], which EC50 [2] is on record?
A: > 10 µM

Q: Which EC50 ([2]; tested form: HCl) does the source give for `O=Cc1c(O)ccc2cc(N3CCC(NCc4ccccc4)CC3)ccc12` [Compound 97] here?
A: > 10 µM

Q: `O=Cc1c(O)ccc2cc(N3CCC(NCc4ccccn4)CC3)ccc12` [Compound 114] was tested. Which EC50 ([2]; tested form: HCl) did it give?
A: > 10 µM

Q: With `O=Cc1c(O)ccc2cc(N3CCC(NCc4cccnc4)CC3)ccc12` [Compound 116] as the compound, how does the EC50 ([2]; tested form: HCl) read?
A: < 10 µM
